Reference: US20140273010A1, “ACID-CLEAVABLE AND CLICKABLE AFFINITY CAPTURE PROBE” (The Research Foundation for The State University of New York, priority 2013, published 2014)

Test: Cleavage test of BSA conjugates captured on streptavidin-ultralink resin
Conditions: for cleavage efficiency on streptavidin-ultralink resin, 7c compared to 7b: 1% TFA; for release of BSA from streptavidin resin under cleavage conditions: 1% TFA at 37° C., 1 hour

BSA-7b: alkyne functionalized BSA conjugated to probe 7b by azide-alkyne cycloaddition
cleavage efficiency on streptavidin-ultralink resin, 7c compared to 7b: similar | release of BSA from streptavidin resin under cleavage conditions: successfully released from resin

BSA-7c: alkyne functionalized BSA conjugated to probe 7c by azide-alkyne cycloaddition
cleavage efficiency on streptavidin-ultralink resin, 7c compared to 7b: similar

Biotin-PEG10-N3 [Compound 8, reference compound]
release of BSA from streptavidin resin under cleavage conditions: a small amount of BSA conjugated to non-acetal probe 8 was released from the resin
